Results are given in words; binding and its absence hold for the method and conditions named. For some of these results: Binding seen in cells or lysates may run through a third protein. Some results given as binding are weak or reduced against the parent protein; the word gives no strength. For some of these results: Sequences can lack the tags named with a protein.
Assays:
[1] = molecular target: T1, Serum response factor (SRF), endogenous (mouse (endogenous in primary VSMCs)) (UniProt Q9JM73); assay: co-IP; indicated antibody or IgG on protein A/G agarose, 2 mg total cell lysate (50 mM Tris-HCl pH 8.0, 150 mM NaCl, 0.2% Nonidet P-40, 2 mM EDTA), 4 °C, 12 h; primary mouse VSMCs (with or without PDGF 40 ng/mL 24 h, Snd1 knockout, FLAG-SND1 overexpression) and mouse femoral arteries after wire injury
T1 sequence: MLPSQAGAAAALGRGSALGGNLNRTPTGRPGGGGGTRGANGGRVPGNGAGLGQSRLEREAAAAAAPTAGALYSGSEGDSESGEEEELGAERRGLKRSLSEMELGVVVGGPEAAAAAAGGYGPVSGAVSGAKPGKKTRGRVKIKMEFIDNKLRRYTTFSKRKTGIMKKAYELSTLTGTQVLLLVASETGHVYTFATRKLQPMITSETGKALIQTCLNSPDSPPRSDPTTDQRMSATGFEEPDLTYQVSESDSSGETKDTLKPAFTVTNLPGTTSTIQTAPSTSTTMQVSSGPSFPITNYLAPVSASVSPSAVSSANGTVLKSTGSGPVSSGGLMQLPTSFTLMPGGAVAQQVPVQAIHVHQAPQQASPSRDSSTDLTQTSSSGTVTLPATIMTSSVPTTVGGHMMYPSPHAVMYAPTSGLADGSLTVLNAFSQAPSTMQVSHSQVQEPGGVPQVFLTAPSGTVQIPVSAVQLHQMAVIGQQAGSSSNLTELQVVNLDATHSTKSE

The chains behind the UniProt entries cited, without tags or fusion partners.
UniProt Q9JHD1: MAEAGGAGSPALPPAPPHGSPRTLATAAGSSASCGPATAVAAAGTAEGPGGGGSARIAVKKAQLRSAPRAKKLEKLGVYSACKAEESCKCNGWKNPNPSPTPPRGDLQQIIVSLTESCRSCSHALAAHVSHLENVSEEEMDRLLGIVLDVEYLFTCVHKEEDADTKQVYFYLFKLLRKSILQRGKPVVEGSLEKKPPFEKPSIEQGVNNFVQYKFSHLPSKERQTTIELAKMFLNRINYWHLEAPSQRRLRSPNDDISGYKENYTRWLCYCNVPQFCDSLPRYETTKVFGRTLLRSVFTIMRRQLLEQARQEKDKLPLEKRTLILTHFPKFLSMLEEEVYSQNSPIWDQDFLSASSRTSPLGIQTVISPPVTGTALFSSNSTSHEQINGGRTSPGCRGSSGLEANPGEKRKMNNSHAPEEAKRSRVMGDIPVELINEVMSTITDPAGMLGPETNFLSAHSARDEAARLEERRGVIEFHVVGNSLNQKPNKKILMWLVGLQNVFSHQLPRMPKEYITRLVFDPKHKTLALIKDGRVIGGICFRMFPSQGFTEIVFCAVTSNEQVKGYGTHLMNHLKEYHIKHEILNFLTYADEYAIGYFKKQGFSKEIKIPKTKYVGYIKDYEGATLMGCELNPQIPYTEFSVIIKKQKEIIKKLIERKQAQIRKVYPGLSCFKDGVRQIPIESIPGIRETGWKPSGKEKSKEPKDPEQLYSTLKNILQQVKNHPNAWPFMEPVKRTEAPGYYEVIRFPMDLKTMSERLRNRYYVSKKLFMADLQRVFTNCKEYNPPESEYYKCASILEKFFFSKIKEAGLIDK
UniProt Q8VIM5: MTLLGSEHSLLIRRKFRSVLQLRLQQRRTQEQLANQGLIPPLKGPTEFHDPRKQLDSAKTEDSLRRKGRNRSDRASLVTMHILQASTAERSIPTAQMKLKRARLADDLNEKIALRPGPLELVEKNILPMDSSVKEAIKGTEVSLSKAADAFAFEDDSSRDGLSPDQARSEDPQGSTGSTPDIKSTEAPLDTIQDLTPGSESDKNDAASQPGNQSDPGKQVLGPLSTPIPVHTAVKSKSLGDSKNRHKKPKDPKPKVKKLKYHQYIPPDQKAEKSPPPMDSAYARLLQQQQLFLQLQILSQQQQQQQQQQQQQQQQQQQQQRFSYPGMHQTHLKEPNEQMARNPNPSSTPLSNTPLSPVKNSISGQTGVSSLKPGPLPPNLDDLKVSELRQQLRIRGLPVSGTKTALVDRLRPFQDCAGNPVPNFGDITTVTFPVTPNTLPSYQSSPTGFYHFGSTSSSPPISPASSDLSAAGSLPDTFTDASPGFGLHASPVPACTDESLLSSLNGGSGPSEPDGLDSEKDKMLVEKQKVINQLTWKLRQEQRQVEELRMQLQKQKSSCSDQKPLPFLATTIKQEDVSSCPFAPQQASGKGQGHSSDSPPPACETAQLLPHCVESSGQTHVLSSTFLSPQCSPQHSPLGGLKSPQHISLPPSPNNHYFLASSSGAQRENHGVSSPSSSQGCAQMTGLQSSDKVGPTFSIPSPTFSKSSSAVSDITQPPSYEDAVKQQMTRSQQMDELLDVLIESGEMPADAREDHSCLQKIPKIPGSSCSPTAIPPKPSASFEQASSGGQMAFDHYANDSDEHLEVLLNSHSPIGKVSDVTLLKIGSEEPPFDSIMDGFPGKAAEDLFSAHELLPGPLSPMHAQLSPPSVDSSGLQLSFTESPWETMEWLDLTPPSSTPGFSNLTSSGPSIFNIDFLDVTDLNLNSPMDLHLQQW

[2] = molecular target: T2, Purified SRF (1-266 aa) used in the EMSA (UniProt Q9JM73); assay: native gel or EMSA; 0.1 μg purified SRF (1-266 aa) and SND1 (1-660 aa) with 20 fmol biotin-labeled CArG probe (Fos gene and other genes), room temperature, 6% polyacrylamide gel in 0.5x TBE; complex of both proteins on the DNA; both purified
T2 sequence: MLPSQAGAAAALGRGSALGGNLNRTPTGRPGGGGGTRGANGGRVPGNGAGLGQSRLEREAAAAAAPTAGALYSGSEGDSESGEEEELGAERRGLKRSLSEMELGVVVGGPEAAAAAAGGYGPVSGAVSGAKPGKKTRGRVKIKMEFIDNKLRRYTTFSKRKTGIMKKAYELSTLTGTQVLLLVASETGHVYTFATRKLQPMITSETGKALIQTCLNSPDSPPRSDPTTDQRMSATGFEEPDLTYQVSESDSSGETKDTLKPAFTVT

[3] = molecular target: Lysine acetyltransferase 2B (KAT2B), endogenous (mouse (endogenous in primary VSMCs)) (UniProt Q9JHD1); assay: co-IP; indicated antibody or IgG on protein A/G agarose, 2 mg total cell lysate (50 mM Tris-HCl pH 8.0, 150 mM NaCl, 0.2% Nonidet P-40, 2 mM EDTA), 4 °C, 12 h; primary mouse VSMCs (with or without PDGF 40 ng/mL 24 h, Snd1 knockout, FLAG-SND1 overexpression) and mouse femoral arteries after wire injury
[4] = molecular target: T3, Staphylococcal nuclease domain-containing protein 1 (SND1), endogenous (mouse (endogenous in primary VSMCs)) (UniProt Q78PY7); assay: as above
T3 sequence: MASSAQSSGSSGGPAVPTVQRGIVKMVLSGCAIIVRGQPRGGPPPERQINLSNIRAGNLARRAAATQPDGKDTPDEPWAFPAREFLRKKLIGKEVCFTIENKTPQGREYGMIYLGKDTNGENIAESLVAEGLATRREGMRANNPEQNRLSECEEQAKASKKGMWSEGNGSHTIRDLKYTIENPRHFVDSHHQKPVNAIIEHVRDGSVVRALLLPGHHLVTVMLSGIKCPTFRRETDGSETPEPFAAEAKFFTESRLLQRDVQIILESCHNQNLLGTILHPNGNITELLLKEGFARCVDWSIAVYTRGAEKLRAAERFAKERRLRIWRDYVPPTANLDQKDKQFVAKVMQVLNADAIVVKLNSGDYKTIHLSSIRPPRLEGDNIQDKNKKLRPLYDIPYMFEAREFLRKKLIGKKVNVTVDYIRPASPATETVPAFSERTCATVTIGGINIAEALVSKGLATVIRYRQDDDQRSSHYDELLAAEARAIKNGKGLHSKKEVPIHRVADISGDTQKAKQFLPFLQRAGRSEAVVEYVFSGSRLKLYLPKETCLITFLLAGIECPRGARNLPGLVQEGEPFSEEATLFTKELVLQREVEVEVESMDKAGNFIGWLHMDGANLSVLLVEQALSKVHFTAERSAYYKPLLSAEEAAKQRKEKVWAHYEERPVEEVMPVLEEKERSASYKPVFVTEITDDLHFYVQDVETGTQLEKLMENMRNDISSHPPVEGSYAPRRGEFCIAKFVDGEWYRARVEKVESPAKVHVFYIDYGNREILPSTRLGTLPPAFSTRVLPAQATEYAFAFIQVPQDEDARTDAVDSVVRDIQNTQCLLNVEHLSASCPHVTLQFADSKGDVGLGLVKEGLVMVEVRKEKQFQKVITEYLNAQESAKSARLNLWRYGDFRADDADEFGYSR

[5] = molecular target: T4, GST-fusion protein containing full-length SND1 (GST-SND1) (UniProt Q78PY7); assay: pull-down; GST-fusion proteins of SND1 (full length, SN, TSN) with in vitro translated SRF; only the target purified
T4 sequence: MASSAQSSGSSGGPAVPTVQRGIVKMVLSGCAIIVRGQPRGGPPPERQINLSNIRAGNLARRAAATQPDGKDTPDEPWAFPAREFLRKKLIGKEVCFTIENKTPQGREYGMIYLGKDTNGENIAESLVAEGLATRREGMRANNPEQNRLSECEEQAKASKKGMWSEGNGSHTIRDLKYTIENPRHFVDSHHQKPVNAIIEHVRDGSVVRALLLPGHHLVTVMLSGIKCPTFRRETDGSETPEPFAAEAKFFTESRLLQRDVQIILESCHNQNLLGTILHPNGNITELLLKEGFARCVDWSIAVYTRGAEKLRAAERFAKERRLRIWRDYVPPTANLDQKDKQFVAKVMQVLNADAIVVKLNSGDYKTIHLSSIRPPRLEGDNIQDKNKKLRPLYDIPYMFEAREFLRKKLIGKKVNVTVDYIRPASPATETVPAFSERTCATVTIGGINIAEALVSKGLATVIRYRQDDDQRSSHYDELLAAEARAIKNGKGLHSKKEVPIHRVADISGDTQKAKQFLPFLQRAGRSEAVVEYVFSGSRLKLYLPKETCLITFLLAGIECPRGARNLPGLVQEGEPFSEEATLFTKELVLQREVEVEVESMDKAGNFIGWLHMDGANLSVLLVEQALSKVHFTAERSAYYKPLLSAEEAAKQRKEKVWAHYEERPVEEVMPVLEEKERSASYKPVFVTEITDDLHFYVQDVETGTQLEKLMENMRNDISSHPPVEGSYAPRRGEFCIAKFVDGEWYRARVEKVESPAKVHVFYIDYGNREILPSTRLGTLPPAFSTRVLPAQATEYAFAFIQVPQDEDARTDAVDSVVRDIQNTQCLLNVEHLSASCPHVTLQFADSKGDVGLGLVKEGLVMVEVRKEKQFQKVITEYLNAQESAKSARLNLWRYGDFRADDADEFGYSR

Molecule: Myocardin (MYOCD) in the Co-IP with SRF (from UniProt Q8VIM5 1-935)
- binding [1]: binds

B1: Purified SND1 (1-660 aa) used in the EMSA (domain or fragment, UniProt Q78PY7 1-660)
chain: MASSAQSSGSSGGPAVPTVQRGIVKMVLSGCAIIVRGQPRGGPPPERQINLSNIRAGNLARRAAATQPDGKDTPDEPWAFPAREFLRKKLIGKEVCFTIENKTPQGREYGMIYLGKDTNGENIAESLVAEGLATRREGMRANNPEQNRLSECEEQAKASKKGMWSEGNGSHTIRDLKYTIENPRHFVDSHHQKPVNAIIEHVRDGSVVRALLLPGHHLVTVMLSGIKCPTFRRETDGSETPEPFAAEAKFFTESRLLQRDVQIILESCHNQNLLGTILHPNGNITELLLKEGFARCVDWSIAVYTRGAEKLRAAERFAKERRLRIWRDYVPPTANLDQKDKQFVAKVMQVLNADAIVVKLNSGDYKTIHLSSIRPPRLEGDNIQDKNKKLRPLYDIPYMFEAREFLRKKLIGKKVNVTVDYIRPASPATETVPAFSERTCATVTIGGINIAEALVSKGLATVIRYRQDDDQRSSHYDELLAAEARAIKNGKGLHSKKEVPIHRVADISGDTQKAKQFLPFLQRAGRSEAVVEYVFSGSRLKLYLPKETCLITFLLAGIECPRGARNLPGLVQEGEPFSEEATLFTKELVLQREVEVEVESMDKAGNFIGWLHMDGANLSVLLVEQALSKVHFTAERSAYYKPLLSAEEAAKQRKEKVWAH
- binding [2]: binds

B2: FLAG-SND1 (pLVX-IRES-FLAG-SND1 lentivirus) (protein, UniProt Q78PY7 1-910)
chain: MASSAQSSGSSGGPAVPTVQRGIVKMVLSGCAIIVRGQPRGGPPPERQINLSNIRAGNLARRAAATQPDGKDTPDEPWAFPAREFLRKKLIGKEVCFTIENKTPQGREYGMIYLGKDTNGENIAESLVAEGLATRREGMRANNPEQNRLSECEEQAKASKKGMWSEGNGSHTIRDLKYTIENPRHFVDSHHQKPVNAIIEHVRDGSVVRALLLPGHHLVTVMLSGIKCPTFRRETDGSETPEPFAAEAKFFTESRLLQRDVQIILESCHNQNLLGTILHPNGNITELLLKEGFARCVDWSIAVYTRGAEKLRAAERFAKERRLRIWRDYVPPTANLDQKDKQFVAKVMQVLNADAIVVKLNSGDYKTIHLSSIRPPRLEGDNIQDKNKKLRPLYDIPYMFEAREFLRKKLIGKKVNVTVDYIRPASPATETVPAFSERTCATVTIGGINIAEALVSKGLATVIRYRQDDDQRSSHYDELLAAEARAIKNGKGLHSKKEVPIHRVADISGDTQKAKQFLPFLQRAGRSEAVVEYVFSGSRLKLYLPKETCLITFLLAGIECPRGARNLPGLVQEGEPFSEEATLFTKELVLQREVEVEVESMDKAGNFIGWLHMDGANLSVLLVEQALSKVHFTAERSAYYKPLLSAEEAAKQRKEKVWAHYEERPVEEVMPVLEEKERSASYKPVFVTEITDDLHFYVQDVETGTQLEKLMENMRNDISSHPPVEGSYAPRRGEFCIAKFVDGEWYRARVEKVESPAKVHVFYIDYGNREILPSTRLGTLPPAFSTRVLPAQATEYAFAFIQVPQDEDARTDAVDSVVRDIQNTQCLLNVEHLSASCPHVTLQFADSKGDVGLGLVKEGLVMVEVRKEKQFQKVITEYLNAQESAKSARLNLWRYGDFRADDADEFGYSR
- binding [1]: binds

B3: Staphylococcal nuclease domain-containing protein 1 (SND1), endogenous (protein, UniProt Q78PY7 1-910)
chain: MASSAQSSGSSGGPAVPTVQRGIVKMVLSGCAIIVRGQPRGGPPPERQINLSNIRAGNLARRAAATQPDGKDTPDEPWAFPAREFLRKKLIGKEVCFTIENKTPQGREYGMIYLGKDTNGENIAESLVAEGLATRREGMRANNPEQNRLSECEEQAKASKKGMWSEGNGSHTIRDLKYTIENPRHFVDSHHQKPVNAIIEHVRDGSVVRALLLPGHHLVTVMLSGIKCPTFRRETDGSETPEPFAAEAKFFTESRLLQRDVQIILESCHNQNLLGTILHPNGNITELLLKEGFARCVDWSIAVYTRGAEKLRAAERFAKERRLRIWRDYVPPTANLDQKDKQFVAKVMQVLNADAIVVKLNSGDYKTIHLSSIRPPRLEGDNIQDKNKKLRPLYDIPYMFEAREFLRKKLIGKKVNVTVDYIRPASPATETVPAFSERTCATVTIGGINIAEALVSKGLATVIRYRQDDDQRSSHYDELLAAEARAIKNGKGLHSKKEVPIHRVADISGDTQKAKQFLPFLQRAGRSEAVVEYVFSGSRLKLYLPKETCLITFLLAGIECPRGARNLPGLVQEGEPFSEEATLFTKELVLQREVEVEVESMDKAGNFIGWLHMDGANLSVLLVEQALSKVHFTAERSAYYKPLLSAEEAAKQRKEKVWAHYEERPVEEVMPVLEEKERSASYKPVFVTEITDDLHFYVQDVETGTQLEKLMENMRNDISSHPPVEGSYAPRRGEFCIAKFVDGEWYRARVEKVESPAKVHVFYIDYGNREILPSTRLGTLPPAFSTRVLPAQATEYAFAFIQVPQDEDARTDAVDSVVRDIQNTQCLLNVEHLSASCPHVTLQFADSKGDVGLGLVKEGLVMVEVRKEKQFQKVITEYLNAQESAKSARLNLWRYGDFRADDADEFGYSR
- binding [1]: binds
- binding [3]: binds

B4: Serum response factor (SRF), endogenous (protein, UniProt Q9JM73 1-504)
chain: MLPSQAGAAAALGRGSALGGNLNRTPTGRPGGGGGTRGANGGRVPGNGAGLGQSRLEREAAAAAAPTAGALYSGSEGDSESGEEEELGAERRGLKRSLSEMELGVVVGGPEAAAAAAGGYGPVSGAVSGAKPGKKTRGRVKIKMEFIDNKLRRYTTFSKRKTGIMKKAYELSTLTGTQVLLLVASETGHVYTFATRKLQPMITSETGKALIQTCLNSPDSPPRSDPTTDQRMSATGFEEPDLTYQVSESDSSGETKDTLKPAFTVTNLPGTTSTIQTAPSTSTTMQVSSGPSFPITNYLAPVSASVSPSAVSSANGTVLKSTGSGPVSSGGLMQLPTSFTLMPGGAVAQQVPVQAIHVHQAPQQASPSRDSSTDLTQTSSSGTVTLPATIMTSSVPTTVGGHMMYPSPHAVMYAPTSGLADGSLTVLNAFSQAPSTMQVSHSQVQEPGGVPQVFLTAPSGTVQIPVSAVQLHQMAVIGQQAGSSSNLTELQVVNLDATHSTKSE
- binding [4]: binds

B5: In vitro translated SRF (protein, UniProt Q9JM73 1-504)
chain: MLPSQAGAAAALGRGSALGGNLNRTPTGRPGGGGGTRGANGGRVPGNGAGLGQSRLEREAAAAAAPTAGALYSGSEGDSESGEEEELGAERRGLKRSLSEMELGVVVGGPEAAAAAAGGYGPVSGAVSGAKPGKKTRGRVKIKMEFIDNKLRRYTTFSKRKTGIMKKAYELSTLTGTQVLLLVASETGHVYTFATRKLQPMITSETGKALIQTCLNSPDSPPRSDPTTDQRMSATGFEEPDLTYQVSESDSSGETKDTLKPAFTVTNLPGTTSTIQTAPSTSTTMQVSSGPSFPITNYLAPVSASVSPSAVSSANGTVLKSTGSGPVSSGGLMQLPTSFTLMPGGAVAQQVPVQAIHVHQAPQQASPSRDSSTDLTQTSSSGTVTLPATIMTSSVPTTVGGHMMYPSPHAVMYAPTSGLADGSLTVLNAFSQAPSTMQVSHSQVQEPGGVPQVFLTAPSGTVQIPVSAVQLHQMAVIGQQAGSSSNLTELQVVNLDATHSTKSE
- binding [5]: binds

Reference: paper PMC10817852, “Vascular injury activates the ELK1/SND1/SRF pathway to promote vascular smooth muscle cell proliferative phenotype and neointimal hyperplasia”
